Data as given in PubChem BioAssay AID686943 (Drosophila RNAi Screening Center, 2013)

Aim: 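Fly genes whose loss alters ERK activation after insulin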 (primary screen)
Cell system: Drosophila S2R+ haemocyte-like cells expressing YFP-tagged ERK (Rolled)
Reagent: long dsRNA against Drosophila genes
Conditions: insulin stimulation versus unstimulated cells; dose and duration not given
Detection: 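Antibody staining for doubly phosphorylated ERK divided by ERK-YFP signal, as plate z-scores, in insulin-treated and untreated cells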
Reading the numbers: replicate 1, z-score of dpERK with insulin and replicate 2, z-score of dpERK with insulin: higher = more active ERK per ERK-YFP after insulin
The screen tested about 23,000 reagents; this is an unselected part of those with a known target gene and a result. 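Extra replicates exist only for a retested subset of genes; insulin dose and duration not given; both raised and lowered dpERK matter.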 Further read-outs or replicates are left out here. The record does not give: the amount of reagent, the time to read-out.

How did the screen score FucTC (GeneID 3355171)?
replicate 1, z-score of dpERK with insulin: -0.4; replicate 2, z-score of dpERK with insulin: -0.83

What did the screen give for CR32733 (GeneID 12797943)?
replicate 1, z-score of dpERK with insulin: 0.55; replicate 2, z-score of dpERK with insulin: 0.89

With TTLL3B (GeneID 33946), how do the results read?
replicate 1, z-score of dpERK with insulin: 2.59; replicate 2, z-score of dpERK with insulin: 1.75

With Ublcp1 (GeneID 42726), what does the deposit list?
replicate 1, z-score of dpERK with insulin: -0.34; replicate 2, z-score of dpERK with insulin: 0.11

With CG6472 (GeneID 36895), how do the results read?
replicate 1, z-score of dpERK with insulin: 0.15; replicate 2, z-score of dpERK with insulin: -0.61

What is on record for CG7342 (GeneID 42335)?
replicate 1, z-score of dpERK with insulin: 0.75; replicate 2, z-score of dpERK with insulin: -0.05

What is on record for CG17712 (GeneID 33356)?
replicate 1, z-score of dpERK with insulin: -0.24; replicate 2, z-score of dpERK with insulin: 0.91

For CG10035 (GeneID 41511), how do the results read?
replicate 1, z-score of dpERK with insulin: 0.49; replicate 2, z-score of dpERK with insulin: 0.03

With CG43293 (GeneID 12798363), what does the deposit list?
replicate 1, z-score of dpERK with insulin: 0.39; replicate 2, z-score of dpERK with insulin: 0.06

For CG7203 (GeneID 34055), what was measured?
replicate 1, z-score of dpERK with insulin: 0.44; replicate 2, z-score of dpERK with insulin: 0.28

With CG32971 (GeneID 318271), what does the deposit list?
replicate 1, z-score of dpERK with insulin: 0.17; replicate 2, z-score of dpERK with insulin: 0.15

What did the screen give for CG15740 (GeneID 32139)?
replicate 1, z-score of dpERK with insulin: -3.39; replicate 2, z-score of dpERK with insulin: -0.96

2 neighbouring reagents from above, for reference:
FucTC (GeneID 3355171) | replicate 1, z-score of dpERK with insulin: -0.4; replicate 2, z-score of dpERK with insulin: -0.83
CR32733 (GeneID 12797943) | replicate 1, z-score of dpERK with insulin: 0.55; replicate 2, z-score of dpERK with insulin: 0.89
